Results taken from publication PMC9098866, “Signal transduction in light-oxygen-voltage receptors lacking the active-site glutamine” (Nature Communications, 2022).
Construct, isoform or probe ends are uncertain for at least one entry. A weaker result is weaker than the reference pair of the same experiment. At least one verdict rests on a figure or table, not on a statement of the authors. Tags and fusion partners may be left off the protein sequences shown.

Target: T1, BjFixJ (UniProt P23221)
T1 sequence (looked up, limits assumed): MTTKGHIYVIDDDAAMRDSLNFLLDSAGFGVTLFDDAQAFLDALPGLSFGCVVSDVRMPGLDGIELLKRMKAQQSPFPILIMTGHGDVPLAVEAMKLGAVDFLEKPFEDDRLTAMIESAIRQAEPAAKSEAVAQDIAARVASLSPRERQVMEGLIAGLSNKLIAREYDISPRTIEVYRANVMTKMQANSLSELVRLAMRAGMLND
Experiment: fluorescence anisotropy
Settings: 1 mM ATP, NmPAL: 12 mM HEPES/HCl pH 7.7, 135 mM KCl, 10 mM NaCl, 1 mM MgCl2, 10% glycerol, 100 ug/mL BSA, 4 nM RNA, temperature not stated, BjFixJ: 10 mM HEPES/HCl pH 7.6, recombinant protein, protein details: His6-SUMO removed by Senp2, label: 5'-TAMRA on strand 1

“GAGCGATATCTTAAGGGGGGTGCCTTACGTAGAACCC (double strand) [BjFixK2 operator dsDNA]”: binds (YF1 Q123H, higher anisotropy than with YF1, no light response); binds more weakly (YF1 Q123L after blue light, decay about half the YF1 amplitude); binds (YF1 Q123L in darkness). “GAGCGATATCTTAAGGGGGGTGCCTTACGTAGAACCC (double strand) [BjFixK2 operator dsDNA]”: binds (YF1 Q123P, higher anisotropy than with YF1, no light response); binds more weakly (YF1 after 30 s blue light (dephosphorylation)); binds (YF1 in darkness (phosphorylated BjFixJ)).
